In PubChem BioAssay AID1296 (Columbia University Molecular Screening Center, 2008):
The campaign covered roughly 130,000 compounds. About 1,000 (0.77%) were called active. The shares of active, inactive and inconclusive entries below differ from those in the screen.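 Rule for the calls: active = activation at 2 µM above a set limit, confirmed on inspection of the cell images; inconclusive = above the set limit but not confirmed on image inspection; inactive = the rest.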

Assay: activators of insulin promoter-driven GFP, primary screen, imaging, TRM-6 cells, eGFP reporter, cell count (AID 1296);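 note: share of cells whose green reporter signal exceeds an intensity cutoff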
Conditions: at 2 µM, stronger effect = higher value, plate-scaled: unstimulated 0, stimulated control 100
Method in brief: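 System: human fetal islet-derived TRM-6 cells with tamoxifen-inducible insulin promoter–eGFP reporter; input: seeding density of 1,000 cells per well; buffer or medium: Low-glucose (5.5 mM) medium with tamoxifen; incubation: compound exposure 48 h, 37 °C; measured by: high-content imaging of fixed cells with Hoechst nuclear stain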

SMILES	activation
CCn1c(CCNC(=O)c2cccs2)nnc1SCC(=O)Nc1ccc(Cl)cc1	inconclusive: 400%
O=S(=O)(NCC1CCCO1)c1cccc(S(=O)(=O)N2CCCC2)c1 (configuration not stated)	inactive: 0%
CCOc1ccc(N(C(=O)Cn2nnc3ccccc32)C(C(=O)NC(C)(C)CC)c2cccn2C)cc1 (configuration not stated)	active: 462%
Nn1c(SCC(=O)N2CCOCC2)nnc1-c1ccccc1Cl	active: 111%
CCOC(=O)c1[nH]c(C)c(C(=O)Nc2ccccc2C)c1C	inconclusive: 371%
COc1c(N)c2ccccc2[nH]c1=O	inactive: -1.75%
Cc1cccc(-c2nsc(SCC(=O)Nc3nccs3)n2)c1	active: 121%
COc1ccc2c(c1)c(C(O)CN1CCN(Cc3ccc4c(c3)OCO4)CC1)c(C)n2C (configuration not stated)	inconclusive: 223% [cytotoxic]
CN(C)CCCC1(O)c2ccccc2C=Cc2ccccc21	inactive: 223%
COC(=O)COn1c(SC(C)C)nc2ccccc2c1=O	inactive: 6.9%
CCOC(=O)c1sc(NC(=O)c2ccc(S(=O)(=O)N(C)C)cc2)nc1C	inconclusive: 554%
O=C1C2ON(c3ccc(Br)cc3)C(c3cccnc3)C2C(=O)N1C1CCCCC1 (configuration not stated)	inconclusive: 80.6%
O=C(O)CCC(=O)NC1CCCCCCC1	inconclusive: 411%
CCN1/C(=C/C(C)=C/c2sc3ccccc3[n+]2CC)Sc2ccccc21	active: 641%
Cc1ccc(CNc2ccc3c(c2)OCO3)cc1	active: 440%
Cc1cc(C)n(-c2nc3c(c(=O)n(Cc4ccc(Cl)c(Cl)c4)c(=O)n3C)n2C)n1	inactive: -100%
Cc1ccc(S(=O)(=O)N(C)C)cc1NC(=S)NC(=O)C12CC3CC(CC(C3)C1)C2	active: 388%
CC(C)NC(=O)/C(C#N)=C\c1ccc(N(C)C)o1	active: 560%
O=c1oc2cc(O)ccc2cc1-c1nc2c(s1)CCc1ccccc1-2	active: 733%
O=C(N/N=C/c1ccc[nH]1)c1ccncc1	inactive: 6.67%
Cc1ccc(C)c2c1cc(C)c1nnc(SCC(=O)c3cccs3)n12	inactive: -3.33%

SMILES	activation
CCOC(=O)C1C(=O)CC(O)(c2ccccc2)CC1c1ccccc1 (configuration not stated)	active: 143%
O=C(CC1NCCNC1=O)OCc1ccccc1 (configuration not stated)	inconclusive: 78.8%
O=C(c1cccc2c1C(=O)N(Cc1cccnc1)C2)N1CCN(c2ccccc2)CC1	inconclusive: 494%
Cc1ccc(N2NC(C)(c3cccs3)NC2=S)cc1 (configuration not stated)	inactive: 0%
O=C(c1ccc(Cl)cc1)c1c[nH]cc1-c1ccccc1	inconclusive: 475%
COC(=O)COc1ccc(S(=O)(=O)NCc2cccnc2)cc1	inconclusive: 460%
CCCSc1ccc2nc(NC(=O)OC)[nH]c2c1	inconclusive: 376% [cytotoxic]
CCN(CC(=O)NCCc1ccc(Cl)cc1)Cc1nc2ccccc2c(=O)[nH]1	inconclusive: 200%
CCn1c2ccccc2c2cc(NC(=O)N3CCOCC3)ccc21	inconclusive: 400%
Nc1ccc(-n2nncc2-c2ccccc2)cc1	inconclusive: 493%
COCCNC(=O)C(OC(=O)CC1Sc2ccccc2NC1=O)c1ccccc1 (configuration not stated)	active: 414%
Cc1cc2nc(CSc3ccc(Cl)cc3)cc(=O)n2[nH]1	inactive: 2.33%
CC(NC(=O)Cc1c(F)cccc1Cl)C1CCCO1 (configuration not stated)	inactive: -3.33%
CC1CCc2c(sc(N)c2C(=O)OC(C)C)C1 (configuration not stated)	inactive: -7.14%
CSc1nc(C)c2c(n1)N(c1ccc(F)cc1)CC2	inconclusive: 136%
C(=C\c1ccccc1)/C=N/n1cnnc1	inactive: 0%
CC(=O)N1N=C(c2ccncc2)OC12CCCC2	active: 543%
Cc1cccc2cc3c(N)c(C(=O)N4CCc5ccccc54)sc3nc12	active: 233%
CCOc1ccccc1NC(=O)c1ccccc1-c1nc(-c2ccccc2OC)no1	inconclusive: 225%
Cc1ccc(N2CCN(CCCCN3C(=O)C4CCCN4C3=O)CC2)cc1 (configuration not stated)	inactive: -7.94%
CCN(CC)CCOc1ccc(/C(=C(/Cl)c2ccccc2)c2ccccc2)cc1	active: 280%

Random excerpt: 3 records from the list.
SMILES	activation
COC(=O)COn1c(SC(C)C)nc2ccccc2c1=O	inactive: 6.9%
O=S(=O)(NCC1CCCO1)c1cccc(S(=O)(=O)N2CCCC2)c1 (configuration not stated)	inactive: 0%
Cc1ccc(N2CCN(CCCCN3C(=O)C4CCCN4C3=O)CC2)cc1 (configuration not stated)	inactive: -7.94%

(listing goes on)

SMILES	activation
CCOc1nc(C)ccc1-c1noc(-c2ccco2)n1	inconclusive: 457%
COCC(C)NC(=O)NC(=O)c1ccc(Cl)cc1 (configuration not stated)	active: 77.4%
O=C(Cc1ccc(Cl)cc1Cl)OCC(=O)N1CCN(C(=O)c2ccco2)CC1	inactive: -4.76%
CC(=O)c1c(C)[nH]c(C(=O)CSc2nnc(-c3ccccc3)n2Cc2ccc3c(c2)OCO3)c1C	inconclusive: 515%
COc1ccc(N=C2S/C(=C\c3cccs3)C(=O)N2CC(C)C)cc1	inactive: -3.33%
COC(=O)Cn1cc([N+](=O)[O-])nc1C	inconclusive: 100% [cytotoxic]
CN=c1scc(-c2ccc(OC)cc2)n1/N=C(\C)c1cccnc1	inconclusive: 246%
CC(Oc1ccc(Cl)cc1Cl)c1ccn[nH]1 (configuration not stated)	active: 306%
O=C(NCCCCCCNC(=O)N1CCCCCC1)N1CCCCCC1	inconclusive: 429%
Cc1cc(C)cc(Oc2ccccc2/C=N\O)c1	active: 223%
CC1=C(C(=O)OCC2CCCO2)C(c2ccsc2)C2=C(CC(C)(C)CC2=O)N1 (configuration not stated)	inconclusive: 191%
COc1ccc(OC)c(NC(=O)CSc2nnnn2-c2ccccc2F)c1	inconclusive: 242%
CC(C)CNS(=O)(=O)c1ccc(CCC(=O)O)cc1	inconclusive: 412%
CCC(C)(C(=O)NC1CCCCC1)N(Cc1ccco1)C(=O)c1cnccn1 (configuration not stated)	inconclusive: 520%
Cc1c(C(=O)C(=O)NCCc2ccc(S(N)(=O)=O)cc2)c2ccccc2n1C	inactive: -6.45%
CN(C)CCCn1c(NCc2ccc3c(c2)OCO3)nc2ccccc21	inactive: -7.14%
CC1=NN(c2cccc(C(=O)O)c2)C(=O)/C1=C\C=C\c1ccco1	active: 456%
Cc1cc(C)n(-c2nc3ccccc3nc2N2CCN(C(=O)c3ccccc3)CC2)n1	inconclusive: 400%
COC(=O)/C(=C/c1cn(C)c2ccccc12)[N+](=O)[O-]	inconclusive: 230%
CCOC(=O)CN1C(=O)S/C(=C/C=C/c2ccc(N(C)C)cc2)C1=O	inconclusive: 223%
